# Measured values from patent US20110151497A1, “METABOLOMIC PROFILING OF PROSTATE CANCER” (THE REGENTS OF THE UNIVERSITY OF MICHIGAN, priority 2009, published 2011).
# Test system: prostate cancer cell lines (LNCaP, VCaP, DU145, PC3, 2RVV1) vs RWPE
# Test: GC-MS quantification of polyamines in prostate cell lines
# Type: cell-based
row,Structure (SMILES),levels in non-invasive prostate cell line (RWPE) compared to invasive prostate cancer cell lines
1,NCCCCNCCCN [spermidine],higher levels
2,NCCCCN [putrescine],higher levels
3,NCCCNCCCCNCCCN [spermine],higher levels
